Out of some 390,000 compounds screened, about 610 (0.16%) were called active. This list was built around the results that the source calls inconclusive (neither active nor inactive); the mix of calls is not that of the screen. Calls follow the shape of the dose curve; as a rule, active = well fitted inhibition curve with a large enough effect; inconclusive = small, poorly fitted or top-dose-only effect, or effect the other way, or another doubt; inactive = no such curve, though single readings can be large or run the other way. Potencies of inconclusive entries are doubtful fits and often do not repeat.
Test: Nrf2 qHTS screen for inhibitors: counterscreen for cytotoxicity
Details: A549 ARE-Fluc cells, CellTiter-Fluor viability, 18-24 h; series mostly up to 46 µM
Procedure, shortened: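 A549 ARE-Fluc cells in 5% FBS OPTI-MEM, 5000 cells/well, rested 2 h then exposed to compounds in concentration-response for 18-24 h at 37 °C. Viability by CellTiter-Fluor fluorescence (Ex 405/Em 525) after 30 min; luciferase luminescence (BugLite, 15 min, RT) read afterwards.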
Potency is read from the fitted curve at half-maximal effect.

Row | SMILES | Potency
1 | Clc1cccc(C2Nc3cccc4cccc(c34)N2)c1 | inactive
2 | CCOC(=O)/C(=C\c1ccc([N+](=O)[O-])o1)NC(=O)c1ccccc1 | inconclusive: 20.6 µM [falling, partial curve, poor fit]
3 | Cc1ccc(C(=O)OCC(=O)Nc2ccc3c(c2)OCO3)c(O)c1 | inactive
4 | CCN(CC)CCn1c2ccccc2c2nc3ccc([N+](=O)[O-])cc3cc21 | inconclusive: 16.4 µM [falling, single point]
5 | COc1ccc2sc(N(CCCN(C)C)C(=O)c3ccc(S(=O)(=O)N4CCc5ccccc5C4)cc3)nc2c1 | inconclusive: 29.1 µM [falling, single point]
6 | O=C1NC(=S)S/C1=C\c1cc(Cl)ccc1Cl | inconclusive: 18.4 µM [falling, partial curve, poor fit]
7 | C#CCOCCOCCOCCNc1nc(N2CCN(C(=O)[C@H](CCCCN)n3cc([C@@H](N)CC(C)C)nn3)CC2)nc(N2CCN(C(=O)[C@H](CCCCN)n3cc([C@@H](N)CC(C)C)nn3)CC2)n1 | inactive
8 | CCc1ccc(C2Sc3ccccc3NC3=C2C(=O)c2ccccc23)cc1 (stereo not drawn) | inconclusive: 2.91 µM [activator, partial curve, poor fit]
9 | CC(C)c1nnc(NC(=O)CCS(=O)(=O)c2nc(-c3cccs3)cc(C(F)(F)F)n2)s1 | inconclusive: 5.17 µM [falling, single point]
10 | COc1ccc(-c2cc(C(F)(F)F)nc(SCC(=O)NCc3ccc(OC)c(OC)c3)n2)cc1 | inactive
11 | Cn1c2ccccc2c2c(C(=O)N3CCN(c4ccc(F)cc4)CC3)cn(C3CCCC3)c(=O)c21 | inconclusive: 13 µM [falling, partial curve, poor fit]
12 | Cc1ccc(C(=O)OCC(=O)N2C(C)CCCC2C)s1 (stereo not drawn) | inactive
13 | O=C(C1CCN(Cc2ccc(F)cc2)CC1)N(CCc1ccccc1)Cc1ccccc1 | inconclusive: 14.6 µM [falling, single point]
14 | O=S(=O)(c1ccc2[nH]c3c(c2c1)CCCC3)N1CCCCC1 | inactive
15 | O=C(Nc1ccc(F)cc1Cl)n1ncc2cc(Cl)ccc21 | inactive
16 | CC(=O)c1c(C)[nH]c(C(=O)Nc2nc(-c3ccc(-c4ccccc4)cc3)cs2)c1C | inconclusive: 23.1 µM [falling, single point]
17 | CCc1ccc(NC(=O)CSC2=Nc3ccccc3C3=NC(CCC(=O)NCCc4ccccc4)C(=O)N23)cc1 (stereo not drawn) | inactive
18 | CC(=O)/C(=N\Nc1ccc(C)cc1)N1CCOCC1 | inconclusive: 25.9 µM [activator, partial curve, poor fit]
19 | O=[N+]([O-])c1cc(/C=N/N2CCCCC2)ccc1Cl | inactive
20 | CCn1c(=O)c(C(=O)CN(C)CC(=O)Nc2cccc(F)c2)c(N)n(Cc2ccccc2)c1=O | inconclusive: 32.6 µM [falling, partial curve, poor fit]
21 | COc1cc2nc(N3CCN(c4cc(C)ccc4C)CC3)nc(N)c2cc1OC | inactive
22 | COC(=O)c1c(-c2cccc3ccccc23)csc1NC(=O)Cc1ccc(OC)c(OC)c1 | inconclusive: 23.1 µM [falling, single point]

Row | SMILES | Potency
23 | CCOCCc1nnc(NC(=O)CCc2ccccc2)s1 | inactive
24 | CCN(CC)CCn1c(=N)n(CCOc2ccccc2Cl)c2ccccc21 | inconclusive: 18.4 µM [falling, single point]
25 | N#Cc1nc(Nc2cc(F)cc(F)c2)c2ncn(CCCN3CCCC3)c2n1 | active: 2.06 µM
26 | NC(=O)c1cc(S(=O)(=O)N2CCN(c3ccc([N+](=O)[O-])cc3)CC2)cs1 | inconclusive: 23.1 µM [falling, partial curve, poor fit]
27 | O=C(c1cc([N+](=O)[O-])cc([N+](=O)[O-])c1)N(Cc1nnc(-c2ccccc2Cl)o1)C1CC1 | inconclusive: 0.731 µM [activator, partial curve, poor fit]
28 | COc1cc(NC(=O)c2cc(C)on2)cc(C(=O)Nc2cccc(C(F)(F)F)c2)c1 | inconclusive: 18.4 µM [falling, partial curve, poor fit]
29 | Cc1ccc(C)c(N2CCN(C(=O)CCNS(=O)(=O)c3ccc4c(c3)oc(=O)n4C)CC2)c1 | inactive
30 | COCCc1nn2c(=O)cc(COC(=O)c3ccco3)nc2s1 | inactive
31 | Brc1ccc(-c2nnc3n2CCCCC3)cc1 | inconclusive: 6.51 µM [falling, partial curve, poor fit]
32 | CC(C)N1CCc2c(sc(NC(=O)c3ccc(S(=O)(=O)N(C)C4CCCCC4)cc3)c2C(N)=O)C1 | inconclusive: 23.1 µM [falling, partial curve, poor fit]
33 | CCN1CCC(O)(C#Cc2ccccc2)CC1 | inactive
34 | C=CC(=O)N1C/C(=C/c2ccc(Cl)cc2)C(=O)/C(=C\c2ccc(Cl)cc2)C1 | active: 23.1 µM
35 | CC(C)Nc1ccc(Nc2ccnc3cc4ccccc4cc23)cc1 | inconclusive: 18.4 µM [falling, single point]
36 | CCOc1ccc(-c2cn3c(n2)sc2cc(C(=O)N4CCCC(C)C4)ccc23)cc1 (stereo not drawn) | inactive
37 | CCN(CC)c1ccc(-c2nnc(SCC(=O)Nc3ccccc3C#N)n2-c2ccccc2)cc1 | inconclusive: 32.6 µM [falling, partial curve, poor fit]
38 | CC(C)(C)NC(=O)CCN(/N=C/c1ccc([N+](=O)[O-])o1)C1=NS(=O)(=O)c2ccccc21 | inconclusive: 29.1 µM [falling, partial curve, poor fit]
39 | CCN(CC)CCC(c1ccc(N(C)C)cc1)c1c(OC)cc(OC)c2ccc(=O)oc12 (stereo not drawn) | inconclusive: 18.4 µM [falling, partial curve, poor fit]
40 | COc1ccc(C(=O)Nc2nc(-c3nnn(-c4ccc(F)cc4F)c3C)ns2)cc1 | inactive
41 | CCn1c(SCC(=O)N2CC(C)OC(C)C2)nc2c([nH]c3ccccc32)c1=O (stereo not drawn) | inactive
42 | O=C(CN1CCN(Cc2ccc(F)cc2Cl)C1=O)NCCc1ccc(Cl)cc1 | inconclusive: 5.8 µM [activator, single point]
43 | CC1(C)CC(N=C2C([N+](=O)[O-])=CC=C3C2=NC2(CCCCC2)N3O)CC(C)(C)N1 | inconclusive: 16.4 µM [falling, partial curve, poor fit]

Looked up one by one from the entries so far:
Row | SMILES | Potency
37 | CCN(CC)c1ccc(-c2nnc(SCC(=O)Nc3ccccc3C#N)n2-c2ccccc2)cc1 | inconclusive: 32.6 µM [falling, partial curve, poor fit]
32 | CC(C)N1CCc2c(sc(NC(=O)c3ccc(S(=O)(=O)N(C)C4CCCCC4)cc3)c2C(N)=O)C1 | inconclusive: 23.1 µM [falling, partial curve, poor fit]
